These results are taken from US20240369511A1, “INTEGRATED ELECTROCHEMICAL APTASENSORS FOR MEASURING CELL DEATH AND CYTOKINE ACTIVITY FROM INTACT TISSUE SAMPLES” (University of Washington, priority 2023, published 2024).

This data set deals with Fibroblast growth factor (FGF) (Homo sapiens). The experiment in a line: binding assay. Conditions: 5' ThioMC6-D (disulfide C6 thiol, attached to gold electrode); 3' amino modifier conjugated to methylene blue; 100 ng/mL, growth medium, SWV 50 Hz; signal gain lower than CytC; purified recombinant protein; label: 3' methylene blue; single-stranded DNA.

The exact form of at least one protein or probe is not confirmed. The comparison behind a weaker result is the experiment's own reference, which may not be listed here.

For “CCGTGTCTGGGGCCGACCGGCGCATTGGGTACGTTGTTGC [CytC aptamer (SEQ ID NO:1)]”, the binding result was “binds more weakly”.
